Laboratory results: PubChem BioAssay AID743458 (Peter MacCallum Cancer Centre, 2014)
Here is an unselected part of about 1,800 reagents. 732 of them (41%) were called active. 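Calls are per siRNA reagent; a gene was deemed confirmed only if most of its four siRNAs scored.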 Reagents against one gene are numbered here.

- Purpose: 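Identify genes whose loss lifts vorinostat resistance in colon cancer cells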 (follow-up of hits)
- Cells: human HCT116-VR colon cancer cells made resistant to vorinostat
- Reagent: single siRNA or pool against human genes, 25 nM per single siRNA
- Duration: about 72 h after transfection, including 24 h of drug
- Challenge: vorinostat, 2.5 µM final, for 24 h
- Detection: 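Cell viability by fluorescence and apoptosis by caspase 3/7 luminescence under vorinostat, background-corrected, averaged across two plate copies and given as fold change versus mock transfection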
- Reading the numbers: viability relative to mock: higher = more living cells than mock; caspase activity relative to mock: higher = more apoptosis than mock
- Active means: 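Active means a reduced-viability or caspase-activation class, anything else inactive; classes could only be given to wells that looked healthy when left untreated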

viability relative to mock | caspase activity relative to mock | viability hit class | caspase hit class | Call | gene knocked down | reagent
1.04 | 1.77 | no change | no change | inactive | PDE6G | 1
0.91 | 2.07 | no change | no change | inactive | PDE6G | 2
0.46 | 1.04 | reduced viability | no change | active | PDE6G | 3
0.73 | 3.86 | no change | caspase activation | active | PDE6G | 4
0.74 | 0.96 | no change | no change | inactive | CALM2 | 1
0.9 | 1.72 | no change | no change | inactive | CALM2 | 2
0.8 | 1.43 | no change | no change | inactive | CALM2 | 3
0.82 | 2.25 | no change | no change | inactive | CALM2 | 4
0.36 | 1.28 | reduced viability | no change | active | ERH | 1
0.55 | 2.61 | reduced viability | caspase activation | active | ERH | 2
0.67 | 2.06 | no change | no change | inactive | ERH | 3
0.84 | 0.82 | no change | no change | inactive | ERH | 4

Continued (3 carried over from the part before).
viability relative to mock | caspase activity relative to mock | viability hit class | caspase hit class | Call | gene knocked down | reagent
0.55 | 2.61 | reduced viability | caspase activation | active | ERH | 2
0.67 | 2.06 | no change | no change | inactive | ERH | 3
0.84 | 0.82 | no change | no change | inactive | ERH | 4
1.14 | 1.1 | no change | no change | inactive | CD1B | 1
0.9 | 1.31 | no change | no change | inactive | CD1B | 2
0.88 | 0.94 | no change | no change | inactive | CD1B | 3
0.95 | 1.28 | no change | no change | inactive | CD1B | 4
0.74 | 2.67 | no change | caspase activation | active | EGFL6 | 1
1.18 | 1.75 | no change | no change | inactive | EGFL6 | 2
0.32 | 1.88 | reduced viability | no change | active | EGFL6 | 3
0.87 | 1.06 | no change | no change | inactive | EGFL6 | 4
0.68 | 1.93 | no change | no change | inactive | PLA2G4A | 1
0.86 | 0.84 | no change | no change | inactive | PLA2G4A | 2
0.78 | 3.05 | no change | caspase activation | active | PLA2G4A | 3
0.73 | 2.28 | no change | no change | inactive | PLA2G4A | 4
